Measured values: patent US20050261196A1 (UNIVERSITY OF CHICAGO, published 2005)
These are yes or no findings as the source states them, for the method shown.

Amino acid sequences for entries named in this document (tags omitted). A change or cut given only in a name is not applied to a line headed by its entry.
UniProt Q15746: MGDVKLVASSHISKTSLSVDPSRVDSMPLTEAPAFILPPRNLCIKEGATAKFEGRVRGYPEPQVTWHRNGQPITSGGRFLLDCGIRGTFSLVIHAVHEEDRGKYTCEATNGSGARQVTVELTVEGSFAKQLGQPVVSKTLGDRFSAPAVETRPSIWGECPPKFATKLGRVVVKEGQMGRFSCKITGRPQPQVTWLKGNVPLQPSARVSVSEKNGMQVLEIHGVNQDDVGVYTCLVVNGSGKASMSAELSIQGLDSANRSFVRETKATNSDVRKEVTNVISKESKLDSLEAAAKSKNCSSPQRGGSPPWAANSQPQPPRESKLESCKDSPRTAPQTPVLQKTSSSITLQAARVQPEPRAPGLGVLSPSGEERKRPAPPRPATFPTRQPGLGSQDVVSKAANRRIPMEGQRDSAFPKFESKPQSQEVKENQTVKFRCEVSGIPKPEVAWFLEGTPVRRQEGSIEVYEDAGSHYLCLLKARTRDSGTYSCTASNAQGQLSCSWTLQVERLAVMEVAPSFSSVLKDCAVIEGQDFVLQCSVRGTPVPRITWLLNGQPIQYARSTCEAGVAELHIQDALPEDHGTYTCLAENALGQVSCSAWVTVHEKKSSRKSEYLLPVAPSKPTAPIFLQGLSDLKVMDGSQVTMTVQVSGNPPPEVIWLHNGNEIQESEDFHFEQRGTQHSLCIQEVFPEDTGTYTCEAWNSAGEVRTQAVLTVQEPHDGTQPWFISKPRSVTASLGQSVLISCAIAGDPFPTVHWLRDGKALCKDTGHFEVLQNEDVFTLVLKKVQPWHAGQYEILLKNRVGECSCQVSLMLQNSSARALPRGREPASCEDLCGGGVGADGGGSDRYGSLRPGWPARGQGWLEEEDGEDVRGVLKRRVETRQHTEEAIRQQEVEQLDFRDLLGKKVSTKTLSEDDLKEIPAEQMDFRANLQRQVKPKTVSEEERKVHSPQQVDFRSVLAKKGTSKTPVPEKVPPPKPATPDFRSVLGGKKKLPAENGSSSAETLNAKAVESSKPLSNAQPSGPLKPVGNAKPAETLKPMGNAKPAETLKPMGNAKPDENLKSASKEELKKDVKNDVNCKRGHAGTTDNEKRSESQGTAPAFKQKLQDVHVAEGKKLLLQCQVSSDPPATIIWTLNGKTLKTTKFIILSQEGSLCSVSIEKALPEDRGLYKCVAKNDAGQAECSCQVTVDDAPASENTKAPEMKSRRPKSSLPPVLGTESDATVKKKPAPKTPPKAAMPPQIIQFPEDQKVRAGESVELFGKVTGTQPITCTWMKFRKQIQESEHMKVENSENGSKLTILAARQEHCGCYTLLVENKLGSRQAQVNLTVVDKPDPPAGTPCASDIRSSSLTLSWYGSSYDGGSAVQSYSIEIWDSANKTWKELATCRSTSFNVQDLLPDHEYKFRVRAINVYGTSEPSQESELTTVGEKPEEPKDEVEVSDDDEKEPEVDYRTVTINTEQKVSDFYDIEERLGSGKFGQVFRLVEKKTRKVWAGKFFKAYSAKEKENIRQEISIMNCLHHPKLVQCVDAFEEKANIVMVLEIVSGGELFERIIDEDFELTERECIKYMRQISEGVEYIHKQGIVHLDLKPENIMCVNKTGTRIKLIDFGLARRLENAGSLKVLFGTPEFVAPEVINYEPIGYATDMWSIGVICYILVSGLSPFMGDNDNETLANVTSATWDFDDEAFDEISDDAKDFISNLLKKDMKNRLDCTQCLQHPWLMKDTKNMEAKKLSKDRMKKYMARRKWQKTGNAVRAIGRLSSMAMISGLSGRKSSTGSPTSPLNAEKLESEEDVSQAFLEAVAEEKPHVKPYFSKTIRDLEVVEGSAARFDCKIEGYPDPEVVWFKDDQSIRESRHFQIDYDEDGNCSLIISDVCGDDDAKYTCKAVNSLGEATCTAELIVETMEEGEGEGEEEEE

Molecular target: inactive MLCK, aldehyde-fixed (UniProt Q15746)
Assay: binding of PIK probe to aldehyde-fixed MLCK, streptavidin fluorescence

binding: no binding
B1: PIK (SEQ ID NO: 12) (peptide)
peptide: RKKYKYRRK
